The numbers were not newly measured in paper PMC4018390, “Important Role of CYP2J2 in Protein Kinase Inhibitor Degradation: A Possible Role in Intratumor Drug Disposition and Resistance” (PLoS ONE, 2014), which cites them from elsewhere.

This data set has as its system CYP2J2. The note with it: approved drugs identified as CYP2J2 inhibitors; cited from earlier work.

With `CCCCc1oc2ccccc2c1C(=O)c1cc(I)c(OCCN(CC)CC)c(I)c1` [amiodarone], the CYP2J2 inhibition entry was “CYP2J2 inhibitors”.
